Some of the results follow.

The target in this test is T1, OsSMF1 (Oryza sativa, UniProt Q6ZLB0 1-436).
T1 sequence: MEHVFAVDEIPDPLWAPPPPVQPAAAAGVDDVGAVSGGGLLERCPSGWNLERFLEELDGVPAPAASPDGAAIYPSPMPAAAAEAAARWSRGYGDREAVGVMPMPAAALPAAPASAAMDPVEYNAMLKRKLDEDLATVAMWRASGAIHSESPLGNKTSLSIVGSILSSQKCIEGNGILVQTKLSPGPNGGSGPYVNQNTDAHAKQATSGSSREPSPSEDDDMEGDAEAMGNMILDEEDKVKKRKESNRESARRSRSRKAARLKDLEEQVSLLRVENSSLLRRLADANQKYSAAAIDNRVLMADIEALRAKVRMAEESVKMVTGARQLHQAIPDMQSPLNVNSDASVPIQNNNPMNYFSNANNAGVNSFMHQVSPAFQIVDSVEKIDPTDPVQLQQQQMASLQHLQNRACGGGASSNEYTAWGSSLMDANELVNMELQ
The test is described as follows: protein-binding microarray (RPBM); PBS, 2% BSA, 51.3 ng/ul salmon testes DNA, 50 uM zinc acetate, 200 nM TF, 25 C, 1 h; high values mean tight binding. The conditions noted are these: protein: recombinant; tags: N-terminal polyhistidine and DsRed monomer fusion (pET32a); chain copies: 2; label: CyDye5-dUTP incorporated in the synthesized complementary strand; 3' TTTTT single-stranded linker to array surface; dsDNA, one strand shown. In a few lines:
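Transcription factors, each fused N-terminally to a polyhistidine tag and DsRed, were expressed in E. coli BL21-CodonPlus and purified on Ni–NTA. A custom Agilent array was made double-stranded by primer extension with Cy5-dUTP and blocked with 2% BSA. It was incubated with 200 nM protein in PBS, 2% BSA, salmon testes DNA and 50 µM zinc acetate at 25 °C for 1 h, then washed. The binding signal is per-feature fluorescence intensity (arbitrary units) read on an Axon 4000B scanner.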
Take “AATGCCAAGTGGCAGCCTATGAGCGTTTGTAGCATGCCATCGGAGTCACCTAGTGCAG”: the binding signal was 41200 fluorescence intensity (a.u.).

As for “TGCACTGTGTTTAAGTTATAAAATACTCCTACATCTTTATCGGAGTCACCTAGTGCAG”, the binding signal was 28100 fluorescence intensity (a.u.).

For the sequence “GGTAGAGAAGACGAGGAGTAGGAGGGGTGGTTGGTGCCGACGGAGTCACCTAGTGCAG”, the binding signal is 3550 fluorescence intensity (a.u.).

“CCGGTACTTTGGTACGTCATCCGTGCATGAGTTGGTTTTCCGGAGTCACCTAGTGCAG”: the binding signal is 7210 fluorescence intensity (a.u.).

As for “GACACCAGTAAACCACCCTCTCCCACTGACACCTCGGCCCCGGAGTCACCTAGTGCAG”, the binding signal is 3300 fluorescence intensity (a.u.).

In the case of “GGCCTCTTCGTGGTCTCGGTTCACAGTCACTGGCCACTGGCGGAGTCACCTAGTGCAG”, the binding signal is 3580 fluorescence intensity (a.u.).

With “TAAGCACCCGAGTTGATCCCCATGAGACGTGGCGACTCGGCGGAGTCACCTAGTGCAG”, the binding signal is 3530 fluorescence intensity (a.u.).

Take “CTGAGGTGGGCCCACGTGACAGTCTCACAGCCCACTCCCCCGGAGTCACCTAGTGCAG”: the binding signal was 3390 fluorescence intensity (a.u.).

Take “GTTCTCGTGGGCCCCACCCCGCGCCGAGAGGCTGCAGCAGCGGAGTCACCTAGTGCAG”: the binding signal was 15900 fluorescence intensity (a.u.).

As to “TAGTGGCTACACTCTTGAGCTGGTAGTACAGTATCTACTACGGAGTCACCTAGTGCAG”, the binding signal is 3290 fluorescence intensity (a.u.).

For “ACTGTCCGCATCCTCGTTGCCGCCGTCGTGGCACATCGCGCGGAGTCACCTAGTGCAG”, the binding signal was 7390 fluorescence intensity (a.u.).

As to “ACAGCGGAGAATAAGTTTGTTGACCCTGATCTACTTGATACGGAGTCACCTAGTGCAG”, the binding signal was 17500 fluorescence intensity (a.u.).

As for “ATGGAGGTATTGTGCCAGAGTGCATGCTGACCACGGCAACCGGAGTCACCTAGTGCAG”, the binding signal was 4060 fluorescence intensity (a.u.).

Regarding “GCGTGTTGAGTCGGATCGAGGTTTGCGTTTGTGTTCGTTTCGGAGTCACCTAGTGCAG”, the binding signal is 3510 fluorescence intensity (a.u.).

For the sequence “TTGTGTGTGCGTTTGTGATTGCGTCGGTCGGTTTCAGTTCCGGAGTCACCTAGTGCAG”, the binding signal was 4960 fluorescence intensity (a.u.).

Consider “TTGTCCCTTTCATCATCACGCATTGTTATGCTATTGCTGCCGGAGTCACCTAGTGCAG”, for which the binding signal was 3200 fluorescence intensity (a.u.).

For the sequence “GCTGTCGTACTCTTTCGTAATGTCGTTGCTTACGGAGTACCGGAGTCACCTAGTGCAG”, the binding signal is 3230 fluorescence intensity (a.u.).

Turning to “ACAGCAGTACCGCTACCATTAGAACAGCCACGTATATGAACGGAGTCACCTAGTGCAG”, the binding signal was 6090 fluorescence intensity (a.u.).

Take “CAGATTGTCAAGACACCTATGGTGCCCGGCAAATTCCTCCCGGAGTCACCTAGTGCAG”: the binding signal is 4360 fluorescence intensity (a.u.).

Turning to “GAGGCTCGGCGACGGCCGGTGGGCGAGGAGCAGCGGCGGGCGGAGTCACCTAGTGCAG”, the binding signal was 26600 fluorescence intensity (a.u.).

Take “CGTTGCCGACGCGTGTGTTTGCTGAGACGCCATTGTCACACGGAGTCACCTAGTGCAG”: the binding signal was 4730 fluorescence intensity (a.u.).

Turning to “TTGGTTCTTATGCTGAATCATCGTGTGCTGCACTTGTTGTCGGAGTCACCTAGTGCAG”, the binding signal was 3270 fluorescence intensity (a.u.).

For the sequence “ACAGACCGCTTCTGTCACCTGCCTGCACAAAGGGGATTGGCGGAGTCACCTAGTGCAG”, the binding signal was 4290 fluorescence intensity (a.u.).

In the case of “TGATGCACGGTGGGCCTCTGGTTGCTCGGCCCAGTAAAACCGGAGTCACCTAGTGCAG”, the binding signal is 3310 fluorescence intensity (a.u.).

For “CAATCGCGGCGTCGGCGTGCCGTCGCTTGGGGTGGTGTTGCGGAGTCACCTAGTGCAG”, the binding signal is 38600 fluorescence intensity (a.u.).

Turning to “CCGGTTTGCTGCTCGGAGATGACGAGGGGCATGAGCTATGCGGAGTCACCTAGTGCAG”, the binding signal was 5600 fluorescence intensity (a.u.).

In the case of “TCTTTCTGTACTCCTTTTGATAATCTGATGAAGCTCTGCTCGGAGTCACCTAGTGCAG”, the binding signal was 3650 fluorescence intensity (a.u.).

Turning to “TAAATTCACACACGCCCCACCTCGTCACTCGTCTCGTCTCCGGAGTCACCTAGTGCAG”, the binding signal was 6040 fluorescence intensity (a.u.).

As to “CAGAATTGAAGAACTCAGGGAGCGTGTGGAGTGCAATATCCGGAGTCACCTAGTGCAG”, the binding signal was 3390 fluorescence intensity (a.u.).

For the sequence “ATTATCCCTGACAGGTGGGCTCCACGTGTCAGCGACTGTTCGGAGTCACCTAGTGCAG”, the binding signal was 29900 fluorescence intensity (a.u.).

As to “TGGGATTCGGTGACATCAAATGAGAATGTCACGGGAGAATCGGAGTCACCTAGTGCAG”, the binding signal was 3590 fluorescence intensity (a.u.).

On to “GTACATCAAACATTATCAATATCGGACACATAATCCATTGCGGAGTCACCTAGTGCAG”, for which the binding signal is 3850 fluorescence intensity (a.u.).

With “TGGCATTGACGTGGCGCTTACGTGGCATTATATCTTGAAACGGAGTCACCTAGTGCAG”, the binding signal was 33400 fluorescence intensity (a.u.).

As to “CCGCGGCACGCAGGCGTACGTCAACGGCGACGTGTACGACCGGAGTCACCTAGTGCAG”, the binding signal is 3620 fluorescence intensity (a.u.).

As to “TTAGCCTGTATTTTCCTAACATTGCTACTAATATTGGATGCGGAGTCACCTAGTGCAG”, the binding signal is 12400 fluorescence intensity (a.u.).

Turning to “AAATTATGAGCGTATTGGGGATTGTACACAGGATCTCAGGCGGAGTCACCTAGTGCAG”, the binding signal was 4280 fluorescence intensity (a.u.).

With “TGTGGGTCTGTTCAGATTCATTATATTAGAACGCGTCACGCGGAGTCACCTAGTGCAG”, the binding signal is 6250 fluorescence intensity (a.u.).

For “TCCTTGTCGCGCTGCCATCGCCACCCAATGCCATCGAGCTCGGAGTCACCTAGTGCAG”, the binding signal is 49600 fluorescence intensity (a.u.).

Turning to “CATCTCACATTTGGTGGAGGAGGTGGCATCCTCACCTGCTCGGAGTCACCTAGTGCAG”, the binding signal was 3830 fluorescence intensity (a.u.).

On to “GGCTAGCCGGCCCGGGTTCGAGACTCAGTGACTCACTCATCGGAGTCACCTAGTGCAG”, for which the binding signal was 8170 fluorescence intensity (a.u.).

Regarding “CTCGGACCAGTGACATGATCATGAGCTGGCAATACCGATGCGGAGTCACCTAGTGCAG”, the binding signal is 33400 fluorescence intensity (a.u.).

For the sequence “GCATGCGGGATAGGAGCTTGACTAGCATGACGAGGCAGAACGGAGTCACCTAGTGCAG”, the binding signal was 5890 fluorescence intensity (a.u.).

These data come from PMC7819943, “Rice protein-binding microarrays: a tool to detect cis-acting elements near promoter regions in rice”.
